Source: PubChem BioAssay AID651640 (Broad Institute, 2012)
Among all 350,000 compounds or so, about 6,000 (1.7%) were called active. Inconclusive means that the source gave no clear call. Such entries were picked first, then a sample of the others. No stated cut-off is given here; in the data, active means CPE inhibition above about 20% (passing the limit was not always enough); inconclusive means no clear call, values can overlap the other calls; tested in BHK-21 cells.

Test: protection of cells from dengue 2 killing – plate reader, single concentration, primary screen (AID 651640);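 further: 0% = median of neutral control wells and 100% = median of positive control wells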
Details: DENV2-infected cells, cytopathic effect rescue, at 9.99 µM, hits give high values
With `COCCNC(=O)c1ccccc1NC(=O)c1ccccc1SC` the CPE inhibition was inconclusive: 21.3%. In the case of `Brc1ccc2nc(C3CCCCC3)c(Cc3ccsc3)n2c1`, the CPE inhibition is reported as inconclusive: 20.3%. With `Cc1ccc(C)c(OC(=O)c2cccc(S(=O)(=O)N3CCN(C)CC3)c2)c1` the CPE inhibition was inconclusive: 31.8%. With `O=C(CCN1CCCCC1)N[C@@H]1CC[C@@H](CCNS(=O)(=O)c2ccc(F)cc2)O[C@H]1CO` the CPE inhibition was inactive: -6.2%. With `COc1cccc(-c2ccc3c(c2)[C@H]2[C@H](CCN2C(=O)c2ccc4c(c2)OCO4)[C@H](CO)N3C)c1` the CPE inhibition was inactive: -27.6%. In the case of `CC1(C)C2CCC1(C)C(OC(=O)C[n+]1ccccc1N)C2` (stereo unspecified), the CPE inhibition is reported as inconclusive: 21.5%. With `C[C@H]1CN([C@@H](C)CO)C(=O)c2cccc(NS(=O)(=O)c3cccs3)c2O[C@@H]1CN(C)C(=O)NC1CCCCC1` the CPE inhibition was inactive: 4.89%. For `CCC(=O)Nc1ccc2c(c1)C(=O)N(C)C[C@H](OC)[C@@H](C)CN(CCC(F)(F)F)[C@@H](C)CO2`, the CPE inhibition was inactive: 3.62%. In the case of `C[C@H](CO)N1C[C@H](C)[C@@H](CN(C)C(=O)C2CCOCC2)Oc2cc(-c3ccc(F)cc3)ccc2S1(=O)=O`, the CPE inhibition is reported as inconclusive: 36.9%. For `CCN1CCN(c2ccc(S(=O)(=O)N3CCCCC3)cc2NC(=O)c2sccc2C)CC1`, the CPE inhibition was inconclusive: 25%. For `O=C1Nc2ccc(Br)cc2C1(O)c1ccccc1` (stereo unspecified), the CPE inhibition was inconclusive: 32%. With `C[C@@H]1CCCCO[C@@H](CN(C)C(=O)C2CCCCC2)[C@@H](C)CN([C@H](C)CO)C(=O)c2cc(NC(=O)Nc3cccc4ccccc34)ccc2O1` the CPE inhibition was active: 22.2%. For `CSCC[C@H](NC(=O)c1ccc(OCC2CCCO2)cc1)c1nc2ccccc2[nH]1` (stereo partly specified), the CPE inhibition was inconclusive: 55.5%. With `Cc1ccccc1S(=O)(=O)N1CC(=O)N2[C@@H](CO)[C@H](c3ccc(C#CC4CC4)cc3)[C@@H]2C1` the CPE inhibition was inconclusive: 22.9%. In the case of `COc1ccc2c3c([nH]c2c1)[C@H](CO)N(C(=O)CC1CC1)CC31CN(C(=O)CC2CC2)C1`, the CPE inhibition is reported as inconclusive: 26.6%. In the case of `CCCN(C)C[C@@H]1OCc2cnnn2CCCC(=O)N([C@H](C)CO)C[C@H]1C`, the CPE inhibition is reported as inconclusive: 58%. In the case of `Cc1ccc(CN2CC(=O)N3[C@H](C2)[C@H](c2ccc(-c4ccccc4F)cc2)[C@@H]3CO)cc1`, the CPE inhibition is reported as inactive: -5.08%. With `CCCn1c(SCC(=O)Nc2cccnc2Cl)n[nH]c1=O` the CPE inhibition was inconclusive: 20.6%. In the case of `N#C[C@@H]1[C@@H](c2ccc(C#CC3CCCCC3)cc2)[C@H](CO)N1C(=O)Nc1ccc(F)cc1`, the CPE inhibition is reported as inactive: -9.42%. For `COc1ccc(S(=O)(=O)Nc2ccc3c(c2)C(=O)N([C@@H](C)CO)C[C@H](C)[C@@H](CN(C)S(=O)(=O)c2ccc(F)cc2)OCCCC[C@H](C)O3)cc1`, the CPE inhibition was inconclusive: 24.8%. With `CC1CCN(C(=O)CCN2C(=O)/C(=C/c3cccs3)SC2=S)CC1` the CPE inhibition was inconclusive: 43.6%. For `COc1ccc(NC(=O)Nc2ccc3c(c2)C(=O)N([C@H](C)CO)C[C@H](C)[C@H](CN(C)S(=O)(=O)c2cn(C)cn2)OCCCC[C@H](C)O3)cc1`, the CPE inhibition was inconclusive: 31.7%. For `O=C(COC(=O)C1=NNC(=O)CC1)NCCc1ccccc1`, the CPE inhibition was inconclusive: 23.5%. For `C[C@H]1CCCCO[C@@H](CN(C)C(=O)CCC(F)(F)F)[C@@H](C)CN([C@@H](C)CO)C(=O)c2cc(NS(C)(=O)=O)ccc2O1`, the CPE inhibition was inactive: -0.114%. For `CC1CCCC(NC(=O)C2COc3ccccc3O2)C1C` (stereo unspecified), the CPE inhibition was inconclusive: 27.7%. With `O=C(N/C(=C\c1ccc2c(c1)OCO2)C(=O)N1CCOCC1)c1ccccc1Br` the CPE inhibition was inactive: -4.65%. For `CC(=O)N(C)C[C@H]1Oc2cc(-c3ccccc3F)ccc2S(=O)(=O)N([C@H](C)CO)C[C@H]1C`, the CPE inhibition was inconclusive: 20.2%. With `Fc1ccccc1/C=N/N1CCN(Cc2ccccc2Cl)CC1` the CPE inhibition was inactive: -1.33%. For `COc1ccccc1NC(=O)C1CC(O)CN1C(=O)Oc1ccccc1` (stereo unspecified), the CPE inhibition was inconclusive: 38.8%. For `CCCc1cc(=O)oc2cc(OCC(=O)NC(Cc3c[nH]c4ccc(O)cc34)C(=O)O)c(Cl)cc12` (stereo unspecified), the CPE inhibition was inconclusive: 20.2%. For `CCCC(=O)Nc1ccc2c(c1)C(=O)N(C)[C@H]1CC[C@H](CC(=O)Nc3ccccc3)O[C@H]1CO2`, the CPE inhibition was inactive: 2.78%. In the case of `Cc1ccc(NC(=O)c2ccc(C)c(S(=O)(=O)N3CCOCC3)c2)nc1`, the CPE inhibition is reported as inactive: 5.49%. For `COc1ccc2c3c([nH]c2c1)[C@@H](CO)N(C(=O)C1CCCCC1)CC31CCN(S(C)(=O)=O)CC1`, the CPE inhibition was inconclusive: 30.5%. In the case of `COc1cc(CN(C(=S)NCC(=O)O)C2CCCC2)cc(OC)c1OC`, the CPE inhibition is reported as inconclusive: 24.2%. With `C[C@H](NC(=O)[C@@H]1[C@@H](CO)[C@@H]2Cn3c(cccc3=O)[C@@H]2N1Cc1cccnc1)c1ccccc1` the CPE inhibition was active: 40.5%. For `COc1ccc(N(CC(=O)N2CCN(c3ccc(Cl)cc3)CC2)S(=O)(=O)c2c(C)n[nH]c2C)cc1`, the CPE inhibition was inactive: 1.73%.
